These are yes or no findings as the source states them, for the method shown. Some binding calls cover weakened binding; strength is not graded here.
How the values were obtained:
[1] = molecular target: human PVRIG (Poliovirus Receptor Related Immunoglobulin Domain Containing Protein) (human) (UniProt Q6DKI7); experiment: IHC on FFPE tumour tissue
[2] = molecular target: human PVRIG (Poliovirus Receptor Related Immunoglobulin Domain Containing Protein) (human) (UniProt Q6DKI7); experiment: IHC on FFPE tumour tissue, antibody at 3 ug/ml

Chains of the proteins cited; added tags and fusions are not shown. Lines headed by an entry give the natural chain unless they say otherwise; changes in a name come on top.
UniProt Q6DKI7: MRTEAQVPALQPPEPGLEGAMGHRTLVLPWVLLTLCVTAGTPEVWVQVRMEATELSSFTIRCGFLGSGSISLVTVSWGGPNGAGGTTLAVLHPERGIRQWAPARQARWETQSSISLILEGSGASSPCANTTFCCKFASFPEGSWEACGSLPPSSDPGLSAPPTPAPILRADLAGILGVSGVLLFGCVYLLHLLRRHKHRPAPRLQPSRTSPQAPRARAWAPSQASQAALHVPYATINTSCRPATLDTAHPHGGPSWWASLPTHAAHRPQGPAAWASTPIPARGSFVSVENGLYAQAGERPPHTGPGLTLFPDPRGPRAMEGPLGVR

B1: AB-635 PVRIG Ab (6D8-1 clone) (antibody, V domains shown)
VH: DVKFVESGGGLVKVGGSLKLSCAASGFTFSTYYMSWVRQTPEKRLELVAVINPTGGRTDFLDSVRGRFTISRDNAKNTLYLQMTSLKSEDTALYHCARRGELGRALDYWGQGTSVTVSS
VL: NIVLTQFPASLAVSLGQRASISCRASESVDSYGYSFIHWYQQKPGQPPKLLIYLASSLESGVPARFSGSGSRTDFTLTIDPVEANDAATYYCQQNNGDPWTFGGGTKLEIK
binding [1]: binds
binding [2]: binds

— US20230400467A1
